Laboratory results from the supplement of paper PMC4604168 (melanoma cell lines).
This is one part of the list. Repeats are few or missing, and single values can be far off.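 Cells were imaged in 1,536-well plates, and nuclei stained with an antibody against cleaved PARP were counted against all DNA-stained nuclei to give the apoptosis fraction. Screening doses were chosen to leave most cells alive, and resting and induced cleaved-PARP levels differ strongly between cell lines.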

tested on: CBRC016 (line from a melanoma biopsy); assay: cleaved PARP positive nuclei fraction relative to DMSO control; melanoma cells; higher = more apoptosis; conditions: library dose: low library concentration; 72 h

Structure (SMILES) | cleaved PARP positive nuclei fraction [%]
CC1(C)CCC(c2ccc(Cl)cc2)=C(CN2CCN(c3ccc(C(=O)NS(=O)(=O)c4ccc(N[C@H](CCN5CCOCC5)CSc5ccccc5)c(S(=O)(=O)C(F)(F)F)c4)cc3)CC2)C1 + COC(=O)c1sccc1S(=O)(=O)Nc1ccc(Nc2ccccc2)cc1OC [GSK0660] (first compound 0.4 µM, partner dose 1 µM) | 249
COc1ccc(C2=N[C@@H](c3ccc(Cl)cc3)[C@@H](c3ccc(Cl)cc3)N2C(=O)N2CCNC(=O)C2)c(OC(C)C)c1 [Nutlin-3] + COc1ccc(COc2ccc(Cc3cnc(N)nc3N)cc2OC)cc1 [GW2580] (first compound 0.1 µM, partner dose 1 µM) | 50
Cn1cnc2c(F)c(Nc3ccc(Br)cc3Cl)c(C(=O)NOCCO)cc21 [selumetinib] + COc1ccc2c(c1)CCC1C2CCC2(C)C(NCCCCCCN3C(=O)C=CC3=O)CCC12 [U73122] (first compound 0.015 µM, partner dose 0.4 µM) | 55.6
CC(=O)O[C@@]12CO[C@@H]1C[C@H](O)[C@@]1(C)C(=O)[C@H](O)C3=C(C)[C@@H](OC(=O)[C@H](O)[C@@H](NC(=O)OC(C)(C)C)c4ccccc4)C[C@@](O)([C@@H](OC(=O)c4ccccc4)[C@H]21)C3(C)C [Docetaxel] + Cn1cc(/C=C2\C(=O)Nc3cccnc32)c2ccccc21 [GW441756] (first compound 0.0001 µM, partner dose 0.4 µM) | 184
NC(=O)c1ccc(N(C(N)=O)c2c(F)cccc2F)nc1-c1ccc(F)cc1F + O=C(Nc1ccccc1)c1cc([N+](=O)[O-])ccc1Cl [GW9662] (first compound 0.4 µM, partner dose 2 µM) | 97.6
CC1(C)CCC(c2ccc(Cl)cc2)=C(CN2CCN(c3ccc(C(=O)NS(=O)(=O)c4ccc(N[C@H](CCN5CCOCC5)CSc5ccccc5)c(S(=O)(=O)C(F)(F)F)c4)cc3)CC2)C1 + O=C(Nc1ccccc1)c1cc([N+](=O)[O-])ccc1Cl [GW9662] (first compound 0.4 µM, partner dose 2 µM) | 233
CCN(CC)CCNC(=O)c1c(C)[nH]c(/C=C2\C(=O)Nc3ccc(F)cc32)c1C [sunitinib] + COc1ccc(COc2ccc(Cc3cnc(N)nc3N)cc2OC)cc1 [GW2580] (first compound 0.4 µM, partner dose 1 µM) | 84.7
NC(=O)c1ccc(N(C(N)=O)c2c(F)cccc2F)nc1-c1ccc(F)cc1F + O=c1cc(-c2cccc3c2Sc2ccccc2S3)oc(N2CCOCC2)c1 [KU55933] (first compound 0.4 µM, partner dose 1 µM) | 65.7
CCN(CC)CCNC(=O)c1c(C)[nH]c(/C=C2\C(=O)Nc3ccc(F)cc32)c1C [sunitinib] + c1cc(-c2cnn3cc(-c4ccc(OCCN5CCCCC5)cc4)cnc23)ccn1 [Dorsomorphin] (first compound 0.4 µM, partner dose 0.4 µM) | 38.2
C[C@]1(O)C[C@@H](c2nc(-c3ccc4ccc(-c5ccccc5)nc4c3)c3c(N)nccn32)C1 + Oc1nc(-c2ccc(C(F)(F)F)cc2)nc2c1CSCC2 [XAV939] (first compound 0.4 µM, partner dose 2 µM) | 144
C[C@@H](N)c1ccc(C(=O)Nc2ccnc3[nH]ccc23)cc1 + COc1ccc(-c2ccc3c(N4CCOCC4)nc(N4C[C@@H](C)O[C@@H](C)C4)nc3n2)cc1CO [KU0063794] (first compound 0.4 µM, partner dose 0.02 µM) | 69.7
CCCCCCCCc1ccc(CCC(N)(CO)CO)cc1 [fingolimod] + O=C(O)C(=O)Nc1sc2c(c1C(=O)O)CCNC2 [TCS401] (first compound 2 µM, partner dose 1.66667 µM) | 34.7
CCN(CC)CCNC(=O)c1c(C)[nH]c(/C=C2\C(=O)Nc3ccc(F)cc32)c1C [sunitinib] + Cn1cc(/C=C2\C(=O)Nc3cccnc32)c2ccccc21 [GW441756] (first compound 0.4 µM, partner dose 0.4 µM) | 71.4
CC1(C)CCC(c2ccc(Cl)cc2)=C(CN2CCN(c3ccc(C(=O)NS(=O)(=O)c4ccc(N[C@H](CCN5CCOCC5)CSc5ccccc5)c(S(=O)(=O)C(F)(F)F)c4)cc3)CC2)C1 + c1cc(-c2cnn3cc(-c4ccc(OCCN5CCCCC5)cc4)cnc23)ccn1 [Dorsomorphin] (first compound 0.4 µM, partner dose 0.4 µM) | 376

A second format for some results above:
Structure (SMILES),cleaved PARP positive nuclei fraction [%]
"CC1(C)CCC(c2ccc(Cl)cc2)=C(CN2CCN(c3ccc(C(=O)NS(=O)(=O)c4ccc(N[C@H](CCN5CCOCC5)CSc5ccccc5)c(S(=O)(=O)C(F)(F)F)c4)cc3)CC2)C1 + O=C(Nc1ccccc1)c1cc([N+](=O)[O-])ccc1Cl [GW9662] (first compound 0.4 µM, partner dose 2 µM)",233
"CCN(CC)CCNC(=O)c1c(C)[nH]c(/C=C2\C(=O)Nc3ccc(F)cc32)c1C [sunitinib] + COc1ccc(COc2ccc(Cc3cnc(N)nc3N)cc2OC)cc1 [GW2580] (first compound 0.4 µM, partner dose 1 µM)",84.7
